From publication PMC8357632
These are yes or no findings as the source states them, for the method shown. For some of these results: Binding seen in cells or lysates may run through a third protein. Some entries that bind do so weakly or less than the wild type. For some of these results: Sequences can lack the tags named with a protein.

Tests used:
[1] = biological target: T1, Rse1 (S. cerevisiae (endogenous in yeast whole-cell extract)) (UniProt Q04693); assay: cryo-EM structure + cross-linking; ΔBS-A pre-A complex: Prp40 FF domains placed in the EM density as rigid bodies with the help of CXMS (BS3) cross-links
T1 sequence: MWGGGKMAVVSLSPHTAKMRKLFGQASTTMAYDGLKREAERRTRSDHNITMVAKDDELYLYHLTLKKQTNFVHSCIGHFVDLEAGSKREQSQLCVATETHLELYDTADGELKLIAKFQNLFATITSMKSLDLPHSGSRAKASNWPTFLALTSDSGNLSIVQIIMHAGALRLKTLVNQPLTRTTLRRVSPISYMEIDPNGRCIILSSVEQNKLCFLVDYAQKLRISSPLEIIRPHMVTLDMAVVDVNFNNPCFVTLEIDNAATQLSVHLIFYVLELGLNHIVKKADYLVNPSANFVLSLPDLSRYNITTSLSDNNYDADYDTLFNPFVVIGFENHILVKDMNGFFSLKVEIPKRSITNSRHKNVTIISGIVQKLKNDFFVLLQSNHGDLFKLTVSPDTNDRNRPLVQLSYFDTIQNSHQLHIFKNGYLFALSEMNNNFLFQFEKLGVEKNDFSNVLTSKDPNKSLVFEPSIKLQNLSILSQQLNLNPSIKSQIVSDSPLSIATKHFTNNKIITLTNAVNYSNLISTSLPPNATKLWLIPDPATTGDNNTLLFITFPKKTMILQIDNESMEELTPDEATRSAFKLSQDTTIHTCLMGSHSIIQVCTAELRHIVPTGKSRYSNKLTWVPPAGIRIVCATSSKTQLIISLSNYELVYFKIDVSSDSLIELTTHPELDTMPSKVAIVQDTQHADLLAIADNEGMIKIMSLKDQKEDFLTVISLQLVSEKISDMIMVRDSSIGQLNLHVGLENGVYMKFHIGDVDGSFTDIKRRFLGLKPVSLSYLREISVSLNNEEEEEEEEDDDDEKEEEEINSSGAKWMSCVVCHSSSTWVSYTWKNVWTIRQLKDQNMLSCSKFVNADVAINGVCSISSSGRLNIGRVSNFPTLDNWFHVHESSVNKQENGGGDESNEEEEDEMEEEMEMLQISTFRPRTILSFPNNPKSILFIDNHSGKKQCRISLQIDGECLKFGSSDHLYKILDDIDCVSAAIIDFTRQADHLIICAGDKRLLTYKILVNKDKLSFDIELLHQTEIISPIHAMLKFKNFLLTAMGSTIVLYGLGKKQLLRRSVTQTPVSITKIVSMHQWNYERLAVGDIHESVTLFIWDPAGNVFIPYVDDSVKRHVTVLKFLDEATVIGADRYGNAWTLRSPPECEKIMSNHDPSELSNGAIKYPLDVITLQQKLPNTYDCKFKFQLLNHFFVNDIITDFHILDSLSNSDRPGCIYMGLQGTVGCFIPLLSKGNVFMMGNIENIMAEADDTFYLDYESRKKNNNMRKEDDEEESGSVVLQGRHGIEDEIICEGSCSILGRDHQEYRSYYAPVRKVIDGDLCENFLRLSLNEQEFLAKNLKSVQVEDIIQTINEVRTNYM

[2] = biological target: T2, Luc7 (S. cerevisiae (endogenous in yeast whole-cell extract)) (UniProt Q07508); assay: as above
T2 sequence: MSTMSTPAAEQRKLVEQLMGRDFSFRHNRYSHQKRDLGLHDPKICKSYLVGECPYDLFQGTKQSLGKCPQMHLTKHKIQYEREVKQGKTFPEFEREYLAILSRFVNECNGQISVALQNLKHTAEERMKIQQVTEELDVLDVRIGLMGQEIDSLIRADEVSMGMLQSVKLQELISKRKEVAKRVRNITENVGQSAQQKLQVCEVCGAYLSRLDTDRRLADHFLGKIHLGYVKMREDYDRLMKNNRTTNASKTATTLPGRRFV

[3] = biological target: T3, Snp1 (S. cerevisiae (endogenous in yeast whole-cell extract)) (UniProt Q00916); assay: as above
T3 sequence: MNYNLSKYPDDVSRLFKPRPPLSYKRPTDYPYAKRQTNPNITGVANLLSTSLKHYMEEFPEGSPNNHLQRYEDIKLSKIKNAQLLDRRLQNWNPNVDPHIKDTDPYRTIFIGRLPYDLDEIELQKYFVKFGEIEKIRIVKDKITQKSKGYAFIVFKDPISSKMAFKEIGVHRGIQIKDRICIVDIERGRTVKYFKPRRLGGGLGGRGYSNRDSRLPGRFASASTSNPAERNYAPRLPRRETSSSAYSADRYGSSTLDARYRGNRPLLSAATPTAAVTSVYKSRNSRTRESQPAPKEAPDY

[4] = biological target: T1, Rse1 (S. cerevisiae (endogenous in yeast whole-cell extract)); assay: cryo-EM structure; U257A pre-A complex assembled in yeast extract on U257A Act pre-mRNA; 10.4 Å overall, U1 7.5 Å, U2 13 Å; the ΔBS-A pre-A model fitted into the density

Measured: binding

B1: Prp40 (protein, UniProt P33203 1-583)
chain: MSIWKEAKDASGRIYYYNTLTKKSTWEKPKELISQEELLLRENGWKAAKTADGKVYYYNPTTRETSWTIPAFEKKVEPIAEQKHDTVSHAQVNGNRIALTAGEKQEPGRTINEEESQYANNSKLLNVRRRTKEEAEKEFITMLKENQVDSTWSFSRIISELGTRDPRYWMVDDDPLWKKEMFEKYLSNRSADQLLKEHNETSKFKEAFQKMLQNNSHIKYYTRWPTAKRLIADEPIYKHSVVNEKTKRQTFQDYIDTLIDTQKESKKKLKTQALKELREYLNGIITTSSSETFITWQQLLNHYVFDKSKRYMANRHFKVLTHEDVLNEYLKIVNTIENDLQNKLNELRLRNYTRDRIARDNFKSLLREVPIKIKANTRWSDIYPHIKSDPRFLHMLGRNGSSCLDLFLDFVDEQRMYIFAQRSIAQQTLIDQNFEWNDADSDEITKQNIEKVLENDRKFDKVDKEDISLIVDGLIKQRNEKIQQKLQNERRILEQKKHYFWLLLQRTYTKTGKPKPSTWDLASKELGESLEYKALGDEDNIRRQIFEDFKPESSAPTAESATANLTLTASKKRHLTPAVELDY
binds: all assays above
